## Cleaved PARP after 72 h of treatment

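Human melanoma cells were exposed to a pair of drugs for 72 h in 1,536-well plates and read by automated microscopy after fixing and staining. Values are the share of nuclei positive for cleaved PARP as a percentage of the same share in the DMSO control: 100 is the control level, higher means more apoptosis. Every drug was used at one fixed concentration, the higher of two screened. These are primary screening values without error estimates. The marker varies much from line to line, for technical or biological reasons.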
An unselected part of the screen is shown.
An entry leaves out what has no value listed here.

Compounds and concentrations:
bexarotene, 10 µM: C=C(c1ccc(C(=O)O)cc1)c1cc2c(cc1C)C(C)(C)CCC2(C)C
bortezomib, 0.005 µM: CC(C)C[C@H](NC(=O)[C@H](Cc1ccccc1)NC(=O)c1cnccn1)B(O)O
LFM-A13, 10 µM: C/C(O)=C(\C#N)C(=O)Nc1cc(Br)ccc1Br
tamatinib, 2 µM: COc1cc(Nc2ncc(F)c(Nc3ccc4c(n3)NC(=O)C(C)(C)O4)n2)cc(OC)c1OC

Results for tamatinib and bexarotene are SK-MEL-28: 139; COLO 792: 257; UACC-62: 146; IPC-298: 79.4; SK-MEL-30: 34.5; WM3526: 208; RPMI-7951: 143; MEL-HO: 82.7; WM451Lu: 77.6; WM3619: 134; G-361: 94.8; A101D: 1280; COLO 829: 136; UACC-257: 96.2; C32: 166; WM1745: 201; MZ2-MEL: 46.5; LOX IMVI: 586; SK-MEL-5: 145; A2058: 242; RVH-421: 97.6; SK-MEL-2: 150; LB2518-MEL: 99.3; WM115: 98.9; IST-MEL1: 298; MeWo: 166; COLO 800: 171; WM1716: 114. For bortezomib and tamatinib the values were SK-MEL-28: 408; COLO 792: 1370; UACC-62: 135; IPC-298: 4090; SK-MEL-30: 1090; WM3526: 2100; RPMI-7951: 2020; MEL-HO: 205; WM451Lu: 2710; WM3619: 1350; G-361: 17900; A101D: 2190; COLO 829: 4790; UACC-257: 52.0; C32: 3400; WM1745: 1340; MZ2-MEL: 22600; LOX IMVI: 625; SK-MEL-5: 6660; A2058: 3040; RVH-421: 944; SK-MEL-2: 518; LB2518-MEL: 1790; WM115: 8430; IST-MEL1: 696; MeWo: 2830; COLO 800: 224; WM1716: 11500. With bortezomib and LFM-A13 the screen read SK-MEL-28: 235; COLO 792: 325; UACC-62: 255; IPC-298: 1440; 501mel: 643; SK-MEL-30: 432; WM3526: 1390; RPMI-7951: 1780; MEL-HO: 152; A375: 52.9; WM451Lu: 2050; WM3619: 1970; G-361: 3410; A101D: 560; COLO 829: 1930; UACC-257: 25.5; C32: 493; MZ2-MEL: 14200; LOX IMVI: 396; SK-MEL-5: 720; A2058: 1400; RVH-421: 289; SK-MEL-2: 344; LB2518-MEL: 2860; WM115: 255; IST-MEL1: 904; MeWo: 747; COLO 800: 327; WM1716: 6190. For bexarotene and bortezomib the values were SK-MEL-28: 57.9; COLO 792: 103; UACC-62: 287; IPC-298: 6970; SK-MEL-30: 524; WM3526: 2820; RPMI-7951: 585; MEL-HO: 137; A375: 110; WM451Lu: 1170; WM3619: 2770; G-361: 10100; A101D: 634; COLO 829: 2820; UACC-257: 40.8; C32: 1670; WM1745: 614; MZ2-MEL: 26300; LOX IMVI: 222; SK-MEL-5: 1200; A2058: 1770; RVH-421: 4620; SK-MEL-2: 154; LB2518-MEL: 22000; WM115: 7180; IST-MEL1: 426; MeWo: 2970; COLO 800: 162; WM1716: 25100. For bexarotene and LFM-A13 the values were SK-MEL-28: 150; COLO 792: 84.3; UACC-62: 430; IPC-298: 89.0; 501mel: 81.3; SK-MEL-30: 101; WM3526: 171; RPMI-7951: 245; MEL-HO: 48.3; A375: 112; WM451Lu: 128; WM3619: 64.9; G-361: 43.8; A101D: 80.0; COLO 829: 134; UACC-257: 99.4; C32: 67.2; MZ2-MEL: 217; LOX IMVI: 114; SK-MEL-5: 44.7; A2058: 42.8; RVH-421: 96.9; SK-MEL-2: 112; LB2518-MEL: 96.8; WM115: 89.2; IST-MEL1: 48.1; MeWo: 57.1; COLO 800: 59.7; WM1716: 192.

Values as published with doi:10.1371/journal.pone.0140310, rounded.